Results: the supplement of paper PMC8728848
The other results are listed elsewhere or left out.

Experiments:
Test in all cases: glycan array binding signal (z-score within array); higher = stronger binding
Details in all cases: glycan notation: IUPAC condensed, linker removed
[1] = target: Fuc(a1-2)Gal6S(b1-3)GlcNAc6S
Procedure, shortened: (§1)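 Glycan array binding is given as a within-array Z-score, which can be read as non-binding when negative. The arrays, 3228 of them, came from the Consortium for Functional Glycomics database and were retained only where the protein sequence was available. Z-scores were averaged across arrays of the same protein sequence at different concentrations or buffers and across linkers.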

Fuc(a1-2)Gal6S(b1-4)Glc = target: Fuc(a1-2)Gal6S(b1-4)Glc
Procedure, shortened: as §1

[2] = target: Fuc(a1-2)Gal6S(b1-4)Glc6S
Procedure, shortened: as §1

Fuc(a1-2)[Gal(a1-3)]Gal = target: Fuc(a1-2)[Gal(a1-3)]Gal
Procedure, shortened: as §1

[3] = target: Fuc(a1-2)[Gal(a1-3)]Gal(b1-3)GalNAc
Procedure, shortened: as §1

[4] = target: Fuc(a1-2)[Gal(a1-3)]Gal(b1-3)GalNAc(b1-3)Gal(a1-4)Gal(b1-4)Glc
Procedure, shortened: as §1

[5] = target: Fuc(a1-2)[Gal(a1-3)]Gal(b1-3)GlcNAc
Procedure, shortened: as §1

[6] = target: Fuc(a1-2)[Gal(a1-3)]Gal(b1-3)GlcNAc(b1-2)Man(a1-3)[Fuc(a1-2)[Gal(a1-3)]Gal(b1-3)GlcNAc(b1-2)Man(a1-6)]Man(b1-4)GlcNAc(b1-4)GlcNAc
Procedure, shortened: as §1

[7] = target: Fuc(a1-2)[Gal(a1-3)]Gal(b1-3)GlcNAc(b1-2)Man(a1-3)[Fuc(a1-2)[Gal(a1-3)]Gal(b1-3)GlcNAc(b1-2)Man(a1-6)]Man(b1-4)GlcNAc(b1-4)[Fuc(a1-6)]GlcNAc
Procedure, shortened: as §1

[8] = target: Fuc(a1-2)[Gal(a1-3)]Gal(b1-3)GlcNAc(b1-3)GalNAc
Procedure, shortened: as §1

[9] = target: Fuc(a1-2)[Gal(a1-3)]Gal(b1-3)GlcNAc(b1-6)GalNAc
Procedure, shortened: as §1

[10] = target: Fuc(a1-2)[Gal(a1-3)]Gal(b1-4)Glc
Procedure, shortened: as §1

[11] = target: Fuc(a1-2)[Gal(a1-3)]Gal(b1-4)GlcNAc
Procedure, shortened: as §1

[12] = target: Fuc(a1-2)[Gal(a1-3)]Gal(b1-4)GlcNAc(b1-2)Man
Procedure, shortened: as §1

[13] = target: Fuc(a1-2)[Gal(a1-3)]Gal(b1-4)GlcNAc(b1-2)Man(a1-3)[Fuc(a1-2)[Gal(a1-3)]Gal(b1-4)GlcNAc(b1-2)Man(a1-6)]Man(b1-4)GlcNAc(b1-4)GlcNAc
Procedure, shortened: as §1

[14] = target: Fuc(a1-2)[Gal(a1-3)]Gal(b1-4)GlcNAc(b1-2)Man(a1-3)[Fuc(a1-2)[Gal(a1-3)]Gal(b1-4)GlcNAc(b1-2)Man(a1-6)]Man(b1-4)GlcNAc(b1-4)[Fuc(a1-6)]GlcNAc
Procedure, shortened: as §1

[15] = target: Fuc(a1-2)[Gal(a1-3)]Gal(b1-4)GlcNAc(b1-3)GalNAc
Procedure, shortened: as §1

[16] = target: Fuc(a1-2)[Gal(a1-3)]Gal(b1-4)GlcNAc(b1-3)[Fuc(a1-2)[Gal(a1-3)]Gal(b1-4)GlcNAc(b1-6)]GalNAc
Procedure, shortened: as §1

[17] = target: Fuc(a1-2)[Gal(a1-3)]Gal(b1-4)GlcNAc(b1-6)GalNAc
Procedure, shortened: as §1

[18] = target: Fuc(a1-2)[Gal(a1-3)]Gal(b1-4)[Fuc(a1-3)]Glc
Procedure, shortened: as §1

[19] = target: Fuc(a1-2)[Gal(a1-3)]Gal(b1-4)[Fuc(a1-3)]GlcNAc
Procedure, shortened: as §1

[20] = target: Fuc(a1-2)[Gal(a1-3)]Gal(b1-4)[Fuc(a1-3)]GlcNAc(b1-3)GalNAc
Procedure, shortened: as §1

B1: PX14375D-bvu-513-34-513 (Bacteroides vulgatus) (protein)
chain: TEDTFWKDETDFNLALTSCYTPLKNALNGGYYGTRGVMLRIARADEVDFRNDISDVYTVNRFTNSNTNSLTQGMFYQFYNALYRTNSIMQKLEEKKEQFSTDFQNSVKGECLFIRGFYLFQLAKEFKDAPLRLTASQSPSTFPLAKSSQADIWAQAKEDLKTAASLLPITNKIGKPTQGAAYAALGKIYVYEENWQEAINVLEPLTQNPYTYKLVEDFNWNFDDTHENNAESIFELLIEDVGGTDLWGDGENINSTQSNTRPKEYAAAEVGGWYEANPTQQIMDIFWKEKDKDGNFDYRARCSVAWDYEGCTYYQRPFREVFAQDKWKTYWILKYQNWKTQKDEPAPPKSFINERAIRYADVLLMLAEAYMNKGALDTSIGYINQIRRRANLNDYSGPITKEGVFEDLVHQRAIEFFVEGERFYDLRRWGLLEQTLKTCDDTRYKNYQTGKSDNINKFNYFPIPAKELDTNPLCTPSEGW
glycan array binding signal (z-score) [1]: 0.181 | glycan array binding signal (z-score) (Fuc(a1-2)Gal6S(b1-4)Glc): -0.059 | glycan array binding signal (z-score) [2]: 0.401 | glycan array binding signal (z-score) (Fuc(a1-2)[Gal(a1-3)]Gal): -0.333 | glycan array binding signal (z-score) [3]: -0.307 | glycan array binding signal (z-score) [4]: -0.844 | glycan array binding signal (z-score) [5]: 0.914 | glycan array binding signal (z-score) [6]: -0.075 | glycan array binding signal (z-score) [7]: 0.63 | glycan array binding signal (z-score) [8]: -0.366 | glycan array binding signal (z-score) [9]: -1.06 | glycan array binding signal (z-score) [10]: -0.215 | glycan array binding signal (z-score) [11]: -0.638 | glycan array binding signal (z-score) [12]: 0.468 | glycan array binding signal (z-score) [13]: -0.089 | glycan array binding signal (z-score) [14]: 0.046 | glycan array binding signal (z-score) [15]: -0.214 | glycan array binding signal (z-score) [16]: -0.422 | glycan array binding signal (z-score) [17]: -0.028 | glycan array binding signal (z-score) [18]: -0.016 | glycan array binding signal (z-score) [19]: -0.33 | glycan array binding signal (z-score) [20]: 0.147
